Sequences of proteins named here, by UniProt entry; tags and fusion partners are left off.
UniProt Q0JBA9, entry or part of it: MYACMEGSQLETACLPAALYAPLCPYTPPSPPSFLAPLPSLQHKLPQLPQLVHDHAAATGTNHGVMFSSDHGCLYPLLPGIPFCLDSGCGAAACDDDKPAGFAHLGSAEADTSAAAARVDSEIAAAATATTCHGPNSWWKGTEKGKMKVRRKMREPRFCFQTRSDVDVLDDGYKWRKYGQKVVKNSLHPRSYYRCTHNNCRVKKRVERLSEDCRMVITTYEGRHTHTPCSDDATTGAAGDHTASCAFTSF

Some of the results follow.
What follows are sequences tested against OsWRKY34 (Oryza sativa, UniProt Q0JBA9 1-250) (assay: protein-binding microarray (RPBM); PBS, 2% BSA, 51.3 ng/ul salmon testes DNA, 50 uM zinc acetate, 200 nM TF, 25 C, 1 h; high values mean tight binding). Conditions: protein: recombinant; tags: N-terminal polyhistidine and DsRed monomer fusion (pET32a); label: CyDye5-dUTP incorporated in the synthesized complementary strand; 3' TTTTT single-stranded linker to array surface; dsDNA, one strand shown.
Summary of the method: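 Binding signal is reported as fluorescence intensity per feature (arbitrary units) from an Axon 4000B scanner. Incubation used 200 nM of each Ni–NTA-purified, N-terminally polyhistidine- and DsRed-fused transcription factor from E. coli BL21-CodonPlus on a double-stranded custom Agilent array for 1 h at 25 °C, with 50 µM zinc acetate in the buffer, followed by washing.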
In the case of “TAATGGTTCTGCGGCTTGGACTTCTCTCTCTCTCTCGTTTCGGAGTCACCTAGTGCAG”, the binding signal is reported as 11600 fluorescence intensity (a.u.). For “GAAACATGGTTGGTTTTGTCCTTGTCGTGGCTACTCCAAGCGGAGTCACCTAGTGCAG”, the binding signal was 11200 fluorescence intensity (a.u.). With “AATTTCTTAGCACATGTTTGACTGTTCGTCTTATTAAAAACGGAGTCACCTAGTGCAG” the binding signal was 9430 fluorescence intensity (a.u.). In the case of “ACATATATAACCACTCTATCTATTGCATATAACATAAGTTCGGAGTCACCTAGTGCAG”, the binding signal is reported as 8580 fluorescence intensity (a.u.). For “CGTCCTTATTGTGGTTTTCCACGTGTTTGTCTCTGTGTTTCGGAGTCACCTAGTGCAG”, the binding signal was 13300 fluorescence intensity (a.u.). “TTCCTGCGGCCCAATCAAACGGTCATTCCTATGTCTTTTTCGGAGTCACCTAGTGCAG” was tested, and the binding signal was 8600 fluorescence intensity (a.u.). In the case of “TTTCGTCTTGCTGCGGCGGGGAGGGTGGTGAAGCGAAAGTCGGAGTCACCTAGTGCAG”, the binding signal is reported as 16000 fluorescence intensity (a.u.). In the case of “ATATCTGTCCTAGTTTGTTTCAATCTCAATATACTGTAATCGGAGTCACCTAGTGCAG”, the binding signal is reported as 8230 fluorescence intensity (a.u.). “TGTATGTGTGGTGTGTGTTCATGTGCATCCTGAATTTTACCGGAGTCACCTAGTGCAG” was tested, and the binding signal was 14200 fluorescence intensity (a.u.). “GTCCGGCCCACCCACCACCCCGGCGGCGGCGGCGGCCATGCGGAGTCACCTAGTGCAG” was tested, and the binding signal was 9290 fluorescence intensity (a.u.). For “GCTCAGATTCTTCCCGTGGGCTATTTTTACCACCCGCATCCGGAGTCACCTAGTGCAG”, the binding signal was 9410 fluorescence intensity (a.u.). “TCGCTCTGTACTTTACACGTTGGTTCCTTTTGTATGTGATCGGAGTCACCTAGTGCAG” was tested, and the binding signal was 8390 fluorescence intensity (a.u.). In the case of “TATGTGTCATCAATACTATCTTATTTTTACTCTCACACTCCGGAGTCACCTAGTGCAG”, the binding signal is reported as 8230 fluorescence intensity (a.u.). With “AACGTACACCACATCCCTTTCCCGTTAACTTGGGCCATGCCGGAGTCACCTAGTGCAG” the binding signal was 10700 fluorescence intensity (a.u.). With “TCTTTCAGTTTTTTTTTTCCCGTCCCCTTTCCTCTCGTTTCGGAGTCACCTAGTGCAG” the binding signal was 10300 fluorescence intensity (a.u.). With “GGCCTCGTCTCCTACCTCGCCGACCCCGACCCCGACCACGCGGAGTCACCTAGTGCAG” the binding signal was 8440 fluorescence intensity (a.u.). In the case of “CTCATCCGATTCCTGCGTTTTTCCTGCGCTCCAATCAAACCGGAGTCACCTAGTGCAG”, the binding signal is reported as 9990 fluorescence intensity (a.u.). In the case of “TCATGTCCGAAAACTCCTTTCGACATCTGGTCAAACATCCCGGAGTCACCTAGTGCAG”, the binding signal is reported as 8100 fluorescence intensity (a.u.). “CTACAAGTACGAGCCATATCTCTCGCGTCAATGCTTGCGACGGAGTCACCTAGTGCAG” was tested, and the binding signal was 10000 fluorescence intensity (a.u.). With “AATAGCCTCGTCCCTGTAAACTCCCAATCCCTTTTTAAAACGGAGTCACCTAGTGCAG” the binding signal was 8420 fluorescence intensity (a.u.). In the case of “GAACTGAAATGTGTGGCTTAGTTAATTCTCTTACAGCAACCGGAGTCACCTAGTGCAG”, the binding signal is reported as 8640 fluorescence intensity (a.u.). In the case of “TCTTGTCTTGTTATTTTACCATATTTATAATTTTTTTGACCGGAGTCACCTAGTGCAG”, the binding signal is reported as 10700 fluorescence intensity (a.u.). “CGCCTCCTCCCTTCACACGTTCATCTGCTTCTCTCTCTCACGGAGTCACCTAGTGCAG” was tested, and the binding signal was 8270 fluorescence intensity (a.u.). “TTGTCGTGTCACCTCCATTCTCACCCAACTTCCTTACCTACGGAGTCACCTAGTGCAG” was tested, and the binding signal was 13300 fluorescence intensity (a.u.). For “CTACTCGTTTATTGACTTATTGTCCATCATAGATTCTAAACGGAGTCACCTAGTGCAG”, the binding signal was 8370 fluorescence intensity (a.u.). In the case of “TCACCTACTCTACTCCTCCTCGCCGCCGCCGCCGCTGCTGCGGAGTCACCTAGTGCAG”, the binding signal is reported as 8610 fluorescence intensity (a.u.). In the case of “CATCAAAATTTTCCTACACGCATAAATTTTCAACTTTTTTCGGAGTCACCTAGTGCAG”, the binding signal is reported as 8190 fluorescence intensity (a.u.). With “CAGCGGCGAAGGGAGATCTCAACCGGAGGAGGAGGAGGGGCGGAGTCACCTAGTGCAG” the binding signal was 9260 fluorescence intensity (a.u.). “ATACTCCCTCTGTTTCACAATATAAATCATTTTATTATTTCGGAGTCACCTAGTGCAG” was tested, and the binding signal was 9260 fluorescence intensity (a.u.). “CATTCACGTGCCACATCAACTTGATCACGAACTTTGAATACGGAGTCACCTAGTGCAG” was tested, and the binding signal was 10600 fluorescence intensity (a.u.). “TCTTCAAGGCCATATATCCGCATATCGTGTGTTTCTTTTGCGGAGTCACCTAGTGCAG” was tested, and the binding signal was 12500 fluorescence intensity (a.u.). With “CAACCGCCGCTCGATTCAAACTCACACGTCGCACCACAGCCGGAGTCACCTAGTGCAG” the binding signal was 8400 fluorescence intensity (a.u.). With “TTTAGACAAATTCTAGGGGTGTTATGGTTTCTTTATGAGACGGAGTCACCTAGTGCAG” the binding signal was 10300 fluorescence intensity (a.u.). With “CCAGACCCACTCGCCGTCGCCGCCGCCGCCTCCGCCTACTCGGAGTCACCTAGTGCAG” the binding signal was 11000 fluorescence intensity (a.u.). With “TCCCTTGTCTTCAAACCACATCTGTGCATCATTTTTTCCCCGGAGTCACCTAGTGCAG” the binding signal was 8480 fluorescence intensity (a.u.). “GCTAAATACCAGCGAAGCAGTCGCCCGCGCAAACGCGCGCCGGAGTCACCTAGTGCAG” was tested, and the binding signal was 8220 fluorescence intensity (a.u.). With “AACATGCTTGGAATTGGTCGCTCCGTCATCTACATTGTCACGGAGTCACCTAGTGCAG” the binding signal was 10300 fluorescence intensity (a.u.). In the case of “AGTACTAACATGCATCTTGGATATTTTTATGCTCGCCTATCGGAGTCACCTAGTGCAG”, the binding signal is reported as 8820 fluorescence intensity (a.u.). “GTTTTGGAATATTACAAGTGGGTCCCACTCCACCTCTTATCGGAGTCACCTAGTGCAG” was tested, and the binding signal was 8350 fluorescence intensity (a.u.). For “CTCTGCCTCTGCCTCTCTATAAAAACCGCCAGAGTAGACACGGAGTCACCTAGTGCAG”, the binding signal was 8220 fluorescence intensity (a.u.). “CGTCCTCTGCCACGTCTTGTCGATTTGTCTTCCGTCAGCACGGAGTCACCTAGTGCAG” was tested, and the binding signal was 11200 fluorescence intensity (a.u.). With “TCCACTCCCTGTCGCGCGCCACGTCGCCTGCTGCCGCCCGCGGAGTCACCTAGTGCAG” the binding signal was 10400 fluorescence intensity (a.u.).
